From paper PMC9706582
These are yes or no findings as the source states them, for the method shown. Binding seen in cells or lysates may run through a third protein. Some entries that bind do so weakly or less than the wild type. Values belong to the molecule of their own block, whether it stands above or below them.

Sequences of proteins named here, by UniProt entry; tags and fusion partners are left off.
UniProt P37238: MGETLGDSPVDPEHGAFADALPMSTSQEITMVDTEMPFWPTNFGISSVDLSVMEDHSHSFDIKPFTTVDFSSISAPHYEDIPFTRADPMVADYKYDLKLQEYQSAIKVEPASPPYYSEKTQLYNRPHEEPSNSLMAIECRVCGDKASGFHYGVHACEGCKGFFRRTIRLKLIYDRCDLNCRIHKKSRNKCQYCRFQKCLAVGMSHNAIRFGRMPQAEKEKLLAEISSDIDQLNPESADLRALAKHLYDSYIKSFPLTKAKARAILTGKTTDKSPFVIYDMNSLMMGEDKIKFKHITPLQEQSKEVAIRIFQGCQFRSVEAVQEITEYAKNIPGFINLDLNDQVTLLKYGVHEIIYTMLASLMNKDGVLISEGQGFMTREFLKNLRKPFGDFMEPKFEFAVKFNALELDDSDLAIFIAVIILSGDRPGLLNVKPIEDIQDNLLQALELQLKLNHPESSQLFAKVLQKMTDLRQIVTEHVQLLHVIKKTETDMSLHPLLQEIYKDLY
UniProt Q06831: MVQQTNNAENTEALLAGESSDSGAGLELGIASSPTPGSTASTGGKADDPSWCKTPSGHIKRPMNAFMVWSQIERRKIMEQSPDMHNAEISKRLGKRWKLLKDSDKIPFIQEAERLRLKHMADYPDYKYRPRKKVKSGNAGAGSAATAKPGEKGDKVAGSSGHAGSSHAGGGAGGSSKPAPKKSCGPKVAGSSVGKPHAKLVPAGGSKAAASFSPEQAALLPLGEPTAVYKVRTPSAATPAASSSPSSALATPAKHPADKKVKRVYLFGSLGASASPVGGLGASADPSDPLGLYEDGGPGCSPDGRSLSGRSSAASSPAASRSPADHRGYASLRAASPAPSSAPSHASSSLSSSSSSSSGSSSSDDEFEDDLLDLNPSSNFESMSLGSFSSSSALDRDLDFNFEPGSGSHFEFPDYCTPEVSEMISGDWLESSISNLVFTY
UniProt A2A935: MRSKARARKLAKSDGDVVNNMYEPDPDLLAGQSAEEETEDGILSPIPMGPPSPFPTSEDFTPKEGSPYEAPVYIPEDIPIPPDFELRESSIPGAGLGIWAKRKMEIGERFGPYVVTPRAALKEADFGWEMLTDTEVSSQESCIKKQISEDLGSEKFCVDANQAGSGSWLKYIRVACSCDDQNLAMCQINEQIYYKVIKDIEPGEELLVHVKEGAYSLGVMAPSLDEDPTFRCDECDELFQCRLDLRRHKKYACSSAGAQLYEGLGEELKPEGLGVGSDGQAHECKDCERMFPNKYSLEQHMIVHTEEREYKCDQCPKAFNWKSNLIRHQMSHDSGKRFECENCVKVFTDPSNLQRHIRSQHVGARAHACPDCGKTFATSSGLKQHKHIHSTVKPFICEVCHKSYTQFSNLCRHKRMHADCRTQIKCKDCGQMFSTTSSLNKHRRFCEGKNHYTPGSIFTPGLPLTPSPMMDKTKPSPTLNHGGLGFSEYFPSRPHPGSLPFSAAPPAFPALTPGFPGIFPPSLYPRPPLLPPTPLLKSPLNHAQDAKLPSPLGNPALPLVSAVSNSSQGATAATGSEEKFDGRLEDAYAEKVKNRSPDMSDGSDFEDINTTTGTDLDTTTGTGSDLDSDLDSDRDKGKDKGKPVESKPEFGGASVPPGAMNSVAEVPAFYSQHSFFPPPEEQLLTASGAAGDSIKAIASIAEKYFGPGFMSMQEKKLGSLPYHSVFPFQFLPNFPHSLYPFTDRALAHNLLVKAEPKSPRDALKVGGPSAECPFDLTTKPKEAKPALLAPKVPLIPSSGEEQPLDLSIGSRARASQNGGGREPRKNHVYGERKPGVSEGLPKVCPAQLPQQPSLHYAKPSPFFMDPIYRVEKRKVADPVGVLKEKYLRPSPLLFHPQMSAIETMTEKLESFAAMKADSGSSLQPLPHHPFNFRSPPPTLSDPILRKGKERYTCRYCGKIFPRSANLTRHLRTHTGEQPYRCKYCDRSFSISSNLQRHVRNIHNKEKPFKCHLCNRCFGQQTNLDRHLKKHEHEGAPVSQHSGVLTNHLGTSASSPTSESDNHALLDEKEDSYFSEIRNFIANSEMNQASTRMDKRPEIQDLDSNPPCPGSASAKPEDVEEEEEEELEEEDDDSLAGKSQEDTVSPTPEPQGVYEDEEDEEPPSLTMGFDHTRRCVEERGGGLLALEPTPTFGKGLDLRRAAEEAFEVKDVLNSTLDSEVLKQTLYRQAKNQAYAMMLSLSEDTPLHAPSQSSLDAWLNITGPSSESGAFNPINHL

Assays:
[1] = molecular target: HA-tagged PPARγ2 (peroxisome proliferator-activated receptor gamma 2) (UniProt P37238); test: co-IP; HEK293T cells transfected (PEI) with FLAG-tagged and HA-tagged proteins; lysed in IP buffer (20 mM Tris pH 7.5, 150 mM NaCl, 1 mM EDTA, 1 mM EGTA, 2.5 mM sodium pyrophosphate, 1% Triton); anti-Flag or anti-HA affinity gel, Western blot; in Figure 6C with or without co-expressed SOX4 and with or without 1 μM rosiglitazone for 4 hr; in Figure S10 with overexpressed SOX4
[2] = molecular target: FLAG-tagged SOX4 (transcription factor SOX-4) (UniProt Q06831); test: as above
[3] = molecular target: endogenous PPARγ (peroxisome proliferator-activated receptor gamma) (mouse (endogenous in beige adipocytes from mouse iWAT SVF cells and in mouse iWAT)) (UniProt P37238); test: co-IP; Endogenous proteins: lysates of beige adipocytes differentiated from immortalized SVF cells, or of mouse iWAT, incubated overnight with anti-PPARγ antibody cross-linked to protein A/G magnetic beads; IgG control; Western blot. Figure 6E: with Vector or Sox4-expression adenovirus. Figure 6F: iWAT of cold-exposed control and SOX4 AKO mice
[4] = molecular target: PPARγ2 as used in the Co-IP with PGC-1α (Figure S10) (UniProt P37238); test: co-IP; HEK293T cells transfected (PEI) with FLAG-tagged and HA-tagged proteins; lysed in IP buffer (20 mM Tris pH 7.5, 150 mM NaCl, 1 mM EDTA, 1 mM EGTA, 2.5 mM sodium pyrophosphate, 1% Triton); anti-Flag or anti-HA affinity gel, Western blot; in Figure 6C with or without co-expressed SOX4 and with or without 1 μM rosiglitazone for 4 hr; in Figure S10 with overexpressed SOX4

Molecule: endogenous SOX4 (transcription factor SOX-4) (from UniProt Q06831 1-440)
binding [3]: binds

B1: PGC-1α (PPARγ coactivator-1α) (protein, UniProt O70343 1-797)
chain: MAWDMCSQDSVWSDIECAALVGEDQPLCPDLPELDLSELDVNDLDTDSFLGGLKWCSDQSEIISNQYNNEPANIFEKIDEENEANLLAVLTETLDSLPVDEDGLPSFDALTDGAVTTDNEASPSSMPDGTPPPQEAEEPSLLKKLLLAPANTQLSYNECSGLSTQNHAANHTHRIRTNPAIVKTENSWSNKAKSICQQQKPQRRPCSELLKYLTTNDDPPHTKPTENRNSSRDKCASKKKSHTQPQSQHAQAKPTTLSLPLTPESPNDPKGSPFENKTIERTLSVELSGTAGLTPPTTPPHKANQDNPFKASPKLKPSCKTVVPPPTKRARYSECSGTQGSHSTKKGPEQSELYAQLSKSSGLSRGHEERKTKRPSLRLFGDHDYCQSLNSKTDILINISQELQDSRQLDFKDASCDWQGHICSSTDSGQCYLRETLEASKQVSPCSTRKQLQDQEIRAELNKHFGHPCQAVFDDKSDKTSELRDGDFSNEQFSKLPVFINSGLAMDGLFDDSEDESDKLSYPWDGTQPYSLFDVSPSCSSFNSPCRDSVSPPKSLFSQRPQRMRSRSRSFSRHRSCSRSPYSRSRSRSPGSRSSSRSCYYYESSHYRHRTHRNSPLYVRSRSRSPYSRRPRYDSYEAYEHERLKRDEYRKEHEKRESERAKQRERQKQKAIEERRVIYVGKIRPDTTRTELRDRFEVFGEIEECTVNLRDDGDSYGFITYRYTCDAFAALENGYTLRRSNETDFELYFCGRKQFFKSNYADLDTNSDDFDPASTKSKYDSLDFDSLLKEAQRSLRR
binding [4]: binds

Further lines, results first:

binding [1]: binds
Molecule: FLAG-tagged SOX4 (transcription factor SOX-4) (from UniProt Q06831 1-440)

binding [2]: binds
Molecule: HA-PRDM16 (histone-lysine N-methyltransferase PRDM16) (from UniProt A2A935 1-1275)
